Measured values as given in paper doi:10.1101/2021.02.19.432017 (bioRxiv, 2021).
No constants are given. Whether binding was seen depends on the method and setting.

Biological target: GST-fused Raf-1 CR1 domain (RBD and CRD) (mouse) (UniProt Q99N57)
Assay: BLI

B1: Ras suppressor-1 (Rsu-1), wild type (natural protein)
chain: MSKSLKKLVEESREKNQPEVDMSDRGISNMLDVNGLFTLSHITQLVLSHNKLTMVPPNIAELKNLEVLNFFNNQIEELPTQISSLQKLKHLNLGMNRLNTLPRGFGSLPALEVLDLTYNNLSENSLPGNFFYLTTLRALYLSDNDFEILPPDIGKLTKLQILSLRDNDLISLPKEIGELTQLKELHIQGNRLTVLPPELGNLDLTGQKQVFKAENNPWVTPIADQFQLGVSHVFEYIRSETYKYLYGRHMQANPEPPKKNNDKSKKISRKPLAAKNR
binding: no binding
